Data taken from publication doi:10.1101/2020.12.28.424526 (bioRxiv, 2020).
These are yes or no findings as the source states them, for the method shown. In cells and extracts the contact can be indirect. A result given as binding can be weak or reduced; the word gives no strength.

Target: T1, 5'-3' exoribonuclease-2 (XRN-2) (C. elegans (endogenous in worm lysate)) (UniProt Q9U299)
T1 sequence: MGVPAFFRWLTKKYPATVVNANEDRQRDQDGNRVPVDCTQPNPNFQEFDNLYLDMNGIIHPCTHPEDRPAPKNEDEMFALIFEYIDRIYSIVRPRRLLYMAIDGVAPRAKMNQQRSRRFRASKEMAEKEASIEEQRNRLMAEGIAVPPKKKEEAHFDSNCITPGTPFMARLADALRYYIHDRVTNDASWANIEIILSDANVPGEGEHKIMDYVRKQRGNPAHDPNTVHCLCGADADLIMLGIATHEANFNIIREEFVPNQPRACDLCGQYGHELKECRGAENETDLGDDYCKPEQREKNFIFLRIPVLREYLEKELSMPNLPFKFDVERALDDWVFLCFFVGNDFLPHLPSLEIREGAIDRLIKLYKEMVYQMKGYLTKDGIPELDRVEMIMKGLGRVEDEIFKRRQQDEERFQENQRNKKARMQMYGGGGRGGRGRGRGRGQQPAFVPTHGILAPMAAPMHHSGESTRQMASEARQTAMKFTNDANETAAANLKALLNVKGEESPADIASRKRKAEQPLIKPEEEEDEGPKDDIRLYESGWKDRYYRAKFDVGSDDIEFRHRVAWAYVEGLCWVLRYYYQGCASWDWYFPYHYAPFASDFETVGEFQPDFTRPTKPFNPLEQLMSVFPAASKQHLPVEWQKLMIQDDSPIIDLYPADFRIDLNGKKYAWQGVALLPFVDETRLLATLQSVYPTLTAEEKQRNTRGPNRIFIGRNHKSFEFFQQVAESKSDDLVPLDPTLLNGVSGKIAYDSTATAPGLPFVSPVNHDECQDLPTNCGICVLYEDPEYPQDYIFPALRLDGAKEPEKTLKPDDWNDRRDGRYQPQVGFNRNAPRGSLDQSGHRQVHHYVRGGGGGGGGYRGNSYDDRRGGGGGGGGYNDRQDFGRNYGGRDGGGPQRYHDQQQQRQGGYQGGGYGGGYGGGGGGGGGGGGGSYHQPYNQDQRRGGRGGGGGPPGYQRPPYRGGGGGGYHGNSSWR
Assay: co-IP

Row | binding | Substance
1 | binds | NOL-58 (C. elegans (endogenous in worm lysate))
2 | binds | miRNasome-1.4 (B0024.11) (C. elegans (endogenous in worm lysate))
